Reference: patent US10119137B2, “Methods used to treat cancer” (THE TRANSLATIONAL GENOMICS RESEARCH INSTITUTE, priority 2015, dated 2018)
For at least one compound, name, drawing or mass did not settle the structure.

Key:
Format in all cases: cell-based, Human
[1] = system: SGEF in complex with BRCA1; experiment: Immunoprecipitation of SGEF and BRCA1 after TMZ; conditions: U87, TMZ 500 μM, within thirty minutes, sustained over twenty-four hours
RhoG = experiment: Nuclear RhoG activity pulldown (GST-ELMO-NT); conditions: U87, TMZ 500 μM
SGEF = experiment: Nucleotide-free GEF pulldown (RhoG G15A-GST) of nuclear SGEF activity; conditions: U87 nuclear lysates, TMZ 500 μM over twenty-four hours

Compound: Cn1nnc2c(C(N)=O)ncn2c1=O [TMZ, temozolomide]
- complex formation between SGEF and BRCA1 [1]: induced rapid complex formation between SGEF and BRCA1
- RhoG activity in the nucleus (RhoG): RhoG becomes active in the nucleus
- SGEF activity in the nucleus (SGEF): increased SGEF activity in the nucleus
